# Measured values: PubChem BioAssay AID652054 (National Center for Advancing Translational Sciences (NCATS), 2013)
# Amino acid sequences for entries named in this document (tags omitted).
# UniProt P35462, whole entry, looked up: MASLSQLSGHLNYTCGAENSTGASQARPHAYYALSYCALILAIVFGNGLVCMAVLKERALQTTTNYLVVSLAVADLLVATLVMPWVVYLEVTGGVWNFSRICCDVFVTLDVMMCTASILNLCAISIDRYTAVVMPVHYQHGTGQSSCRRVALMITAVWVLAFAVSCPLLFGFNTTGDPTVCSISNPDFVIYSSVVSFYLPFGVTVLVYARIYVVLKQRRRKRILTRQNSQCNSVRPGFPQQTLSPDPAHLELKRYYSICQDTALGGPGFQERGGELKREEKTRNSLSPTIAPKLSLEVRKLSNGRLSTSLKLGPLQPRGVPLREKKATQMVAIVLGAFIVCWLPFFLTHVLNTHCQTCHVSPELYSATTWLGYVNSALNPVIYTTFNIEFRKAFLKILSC
# Screen size: about 360,000 compounds; about 9,100 (2.5%) were called active. The shares of active, inactive and inconclusive entries below differ from those in the screen. No stated cut-off is given here; in the data, active means max response below about -50%; inconclusive means no clear call, values can overlap the other calls; inactive means above that.
# Target: D(3) dopamine receptor (Homo sapiens) (UniProt P35462)
# Assay: qHTS of D3 Dopamine Receptor Antagonist: qHTS
# Conditions: D3R cells, DiscoveRx beta-arrestin luminescence, antagonist mode; hits give low values
# How it was run: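 Cells plated overnight at 1500 cells/well, then exposed to library compounds with dopamine controls for 90 minutes at 37 degrees C. DiscoveRx reagent added for 30–60 minutes at room temperature; luminescence read, quantitative HTS format.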
# On the % scale 0 is the no-effect control and ±100 the full control effect.
row,Structure (SMILES),"max response, negative = inhibition"
1,O=[N+]([O-])c1cc2c(c(CSc3nnc4ccccn34)c1)OCOC2,inconclusive: -45.3%
2,CN(C)c1nc(N)nc(CSc2nnnn2C)n1,inconclusive: -31.6%
3,COc1ccc(NC(=O)Nc2c(C)n(C)n(-c3ccccc3)c2=O)c(OC)c1,inactive: 19.2%
4,CCc1ccc(/C=N/NC(=O)c2nnn(-c3nonc3N)c2C(C)C)cc1,inactive: -27.8%
5,CC1=NC(=O)C(N=Nc2cccc(C(=O)O)c2)N1c1ccccc1 (stereo not given),inconclusive: -49.2%
6,CCCCC(=O)Nc1ccc(NC(=O)c2ccc([N+](=O)[O-])cc2)cc1OC,inactive: -11.5%
7,O=C(CN1CCN(c2cccc(C(F)(F)F)c2)CC1)Nc1cccc(C(F)(F)F)c1,inconclusive: -32.9%
8,OCCNCCCOc1cc(Cl)ccc1Cl,inconclusive: -30.6%
9,Cc1ccc2nnc(Cl)n2n1,inconclusive: -44.9%
10,CC1=C(C(=O)N2CCCCCC2)CC(CC(=O)NCC2CCCCC2)C(=O)N1Cc1ccc(F)cc1 (stereo not given),active: -64.3%
11,COc1ccc(S(=O)(=O)N2CCC(NC(=O)c3cccnc3)CC2)cc1,inactive: -4.89%
12,CC(C)C(=O)N1CCN(c2ccc(NC(=O)c3ccc([N+](=O)[O-])o3)cc2)CC1,inconclusive: -30.3%
13,Cc1cccc2sc(N(CCCN(C)C)C(=O)CCS(=O)(=O)c3ccccc3)nc12,inconclusive: -31.2%
14,O=C(Nc1ccc(S(=O)(=O)N2CCOCC2)cc1)c1ccc([N+](=O)[O-])o1,inconclusive: -40.1%
15,COc1ccc(COC(=O)NNC(=O)c2ccccc2Cl)cc1,inconclusive: -35.6%
16,COc1ccc(-c2c[n+]3c4n2CCCCC4=C(c2ccccc2)C3)cc1,inconclusive: -33.2%
17,CCn1c(C(=O)N2CCc3ccccc3C2)cc2sccc21,inactive: 0%
18,Cc1cccc(CNC(=O)c2sc(=O)n(Cc3c(C)cccc3C)c2C)c1,active: -89.6%
19,CC(Nc1cc(N2CCN(C(=O)C(C)(C)C)CC2)ccc1[N+](=O)[O-])c1ccccc1 (stereo not given),inconclusive: -35.8%
20,CCc1ccc(NC(=O)CN2CCc3ccccc3C2)cc1,active: -65.4%
21,COc1ccc(C(CNC(=O)c2cccc(Br)c2)N2CCCC2)cc1 (stereo not given),active: -86.8%
22,CCN(CC)c1ccc(C(=O)NNC(=O)C2CCN(c3ncnc4sc(C)c(C)c34)CC2)cc1,inactive: 60%
23,O=C(OCc1ccccc1)N1CCC2CC1c1cc(-c3cc4ccccc4o3)ccc12 (stereo not given),inactive: 8.78%

# Filtered by structure: the compounds so far containing a furan ring, fused or not (3)
row,Structure (SMILES),"max response, negative = inhibition"
12,CC(C)C(=O)N1CCN(c2ccc(NC(=O)c3ccc([N+](=O)[O-])o3)cc2)CC1,inconclusive: -30.3%
14,O=C(Nc1ccc(S(=O)(=O)N2CCOCC2)cc1)c1ccc([N+](=O)[O-])o1,inconclusive: -40.1%
23,O=C(OCc1ccccc1)N1CCC2CC1c1cc(-c3cc4ccccc4o3)ccc12 (stereo not given),inactive: 8.78%

# Later entries

row,Structure (SMILES),"max response, negative = inhibition"
1,COc1ccc(OC)c(NC(=O)C(=O)/C=C(\O)c2cc(OC)ccc2OC)c1,inconclusive: -44.5%
2,CNC(=O)C1Cc2c(-c3ccc(Cl)cc3)ccnc2O1 (stereo not given),active: -57.3%
3,COc1ccc(CCNC(=O)CN2CCN(c3cccc(C(F)(F)F)c3)CC2)cc1,inconclusive: -36.2%
4,COCCCNC(=O)c1ccccc1Oc1ccccc1,inconclusive: -35.6%
5,CCc1ccc(/C=C2\SC(=S)N(CCCC(=O)NCCCN3CCOCC3)C2=O)cc1,inactive: -5.35%
6,CCCCc1c(C)nc2ccc(Br)cc2c1SC(N)N,inactive: -3.57%
7,C/C=C/C(=O)N[C@@H]1c2ccccc2CC[C@@H]1OCc1ccccc1,inconclusive: -36.2%
8,CCN1C(=O)c2cccc3c(S(=O)(=O)NCc4ccccc4)ccc1c23,inconclusive: -31%
9,CCCN(CCC)CCCNC(=O)c1cc2cc3ccc(OC)cc3nc2o1,inconclusive: -41.7%
10,Cc1cc(=O)n2cc(-c3ccccc3)nc2[nH]1,inactive: -21.8%
11,N[C@@H](Cc1ccc(F)cc1)C(=O)O,inconclusive: -45%
12,CCCCn1c(N)c(N(CC(C)C)C(=O)C2CCCN(C(=O)c3ccc(Cl)cc3)C2)c(=O)[nH]c1=O (stereo not given),inactive: -2.26%
13,CC1CC(C)CN(CCCNC(=O)c2ccc3nc(N4CCOCC4)sc3c2)C1 (stereo not given),active: -62.8%
14,CCN1C(=O)[C@H]2[C@@H](c3ccc(-c4cccc(Cl)c4)cc3)N[C@@](CC(C)C)(C(=O)OC)[C@H]2C1=O,inconclusive: -49%
15,Cc1ccc(C(=O)CN2/C(=C(\O)c3ccccc3)C(=O)c3ccccc3S2(=O)=O)c(C)c1,active: -50.1%
16,CCOC(=O)COn1c(-c2cccc(Cl)c2)nc2ccc([N+](=O)[O-])cc21,inactive: -2.61%
17,Cc1ccc(/C=C\c2nccc3c2[nH]c2ccccc23)cc1,inconclusive: -36%
18,O=[N+]([O-])c1cccc(OCCCN2CCC(Cc3ccccc3)CC2)c1,active: -101%
19,Cc1ccc(C)c(S(=O)(=O)N2CCCC2CNC(=O)C(=O)NCc2ccccc2C)c1 (stereo not given),inconclusive: -32.8%
20,O=C(N/N=C/c1ccc(O)c([N+](=O)[O-])c1)C1CC1(c1ccccc1)c1ccccc1 (stereo not given),inconclusive: -34.9%
21,CCc1nnc(SCC(=O)Nc2ccc(N3CCOCC3)cc2)o1,inactive: 1.66%
22,COc1ccc(NC(=O)c2ccc(NCCCN3CCOCC3)c([N+](=O)[O-])c2)cc1,inconclusive: -43.9%
